Laboratory results from patent US20240199759A1.
These are yes or no findings as the source states them, for the method shown. Some results given as binding are weak or reduced against the parent protein; the word gives no strength. Sequences can lack the tags named with a protein.

Target: T1, NKp46 domain I fused to Ig (D1-Ig) (human), O76036
T1 chain: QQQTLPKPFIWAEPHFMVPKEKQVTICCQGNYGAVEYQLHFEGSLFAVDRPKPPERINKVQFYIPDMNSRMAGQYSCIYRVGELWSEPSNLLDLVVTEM
Assay: BIAcore
Conditions: remark: other sources report otherwise

binding: binds
B1: mouse anti-NKp46 monoclonal antibody 09 (antibody, V domains shown)
VH: EVQLQQSGPELVKPGTSVKISCKTSGYTFTEYSMHWVKQSHGKSLEWFGGISPNSGGTSYNQKFKGKATLTVDKSSSTAYMELRSLTSEDSAVYYCARRDFHSSFDYWGQGTTLTVSS
VL: DIVMTQSPATLSVTPGDRVSLSCRASQSISDYLHWFQQKSHESPRLLIKYASQSISGIPSRFSGSGSGSDFTLSINSVEPEDVGVYYCQNGHSFPLTFGPGTKLELK
